In PMC9873702 one finds binding data, which are given here for one substance.

By UniProt entry, the sequences of proteins in these tests, tags left out. Where a name states a change or a piece, a line headed by the entry shows the natural chain unless it says otherwise. Residues count along the entry.
UniProt P35436, residues 1244-1464: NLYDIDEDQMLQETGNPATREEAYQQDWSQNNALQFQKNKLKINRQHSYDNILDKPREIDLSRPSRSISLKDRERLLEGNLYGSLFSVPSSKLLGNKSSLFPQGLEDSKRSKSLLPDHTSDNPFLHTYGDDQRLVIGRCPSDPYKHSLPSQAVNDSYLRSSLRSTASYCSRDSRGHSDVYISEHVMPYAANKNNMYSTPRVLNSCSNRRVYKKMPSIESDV
UniProt Q9Y2J0: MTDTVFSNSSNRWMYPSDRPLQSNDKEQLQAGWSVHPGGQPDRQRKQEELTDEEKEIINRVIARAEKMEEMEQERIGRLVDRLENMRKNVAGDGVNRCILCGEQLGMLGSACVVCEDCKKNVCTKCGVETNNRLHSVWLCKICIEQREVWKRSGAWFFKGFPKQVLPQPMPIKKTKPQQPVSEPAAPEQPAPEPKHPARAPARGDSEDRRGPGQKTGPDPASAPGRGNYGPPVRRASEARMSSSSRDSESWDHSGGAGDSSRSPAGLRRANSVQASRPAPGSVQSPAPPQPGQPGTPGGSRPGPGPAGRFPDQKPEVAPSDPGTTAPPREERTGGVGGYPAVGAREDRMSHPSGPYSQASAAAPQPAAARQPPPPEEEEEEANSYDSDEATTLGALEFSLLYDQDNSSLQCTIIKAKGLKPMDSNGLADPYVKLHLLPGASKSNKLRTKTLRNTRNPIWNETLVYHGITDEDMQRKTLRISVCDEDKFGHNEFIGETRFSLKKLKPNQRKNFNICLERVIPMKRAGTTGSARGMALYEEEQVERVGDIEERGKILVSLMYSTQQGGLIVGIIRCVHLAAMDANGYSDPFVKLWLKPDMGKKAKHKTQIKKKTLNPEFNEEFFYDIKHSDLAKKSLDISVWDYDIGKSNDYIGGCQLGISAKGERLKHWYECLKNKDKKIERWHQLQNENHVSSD

These are yes or no findings as the source states them, for the method shown. Binding seen in cells or lysates may run through a third protein. A result given as binding can be weak or reduced; the word gives no strength.

In the assay the target is GluN2A C-terminal domain (aa 1244-1464), myc-tagged (mouse) (UniProt P35436). In words: co-IP; Flag-tagged Rph3A, myc-tagged GluN2A or HA-tagged PSD95 co-transfected; lysis buffer 50 mM Tris-HCl, 1 mM EDTA, 150 mM NaCl, 1% Igepal CA-630; anti-Flag or anti-myc magnetic agarose beads, 4 °C overnight; western blot; the GluN2A-CTD/PSD95 co-IP was done in the presence of WT or R9A Rph3A.

Regarding “Rabphilin-3A R9A mutant, Flag-tagged (from UniProt Q9Y2J0)”, the binding result is given as “binds”.
